Source: article PMC4825924
No constants are given. Whether binding was seen depends on the method and setting.

Target: T1, AkrA (full-length cDNA in pGBKT7) (A. nidulans) (UniProt Q5B0V6)
T1 sequence: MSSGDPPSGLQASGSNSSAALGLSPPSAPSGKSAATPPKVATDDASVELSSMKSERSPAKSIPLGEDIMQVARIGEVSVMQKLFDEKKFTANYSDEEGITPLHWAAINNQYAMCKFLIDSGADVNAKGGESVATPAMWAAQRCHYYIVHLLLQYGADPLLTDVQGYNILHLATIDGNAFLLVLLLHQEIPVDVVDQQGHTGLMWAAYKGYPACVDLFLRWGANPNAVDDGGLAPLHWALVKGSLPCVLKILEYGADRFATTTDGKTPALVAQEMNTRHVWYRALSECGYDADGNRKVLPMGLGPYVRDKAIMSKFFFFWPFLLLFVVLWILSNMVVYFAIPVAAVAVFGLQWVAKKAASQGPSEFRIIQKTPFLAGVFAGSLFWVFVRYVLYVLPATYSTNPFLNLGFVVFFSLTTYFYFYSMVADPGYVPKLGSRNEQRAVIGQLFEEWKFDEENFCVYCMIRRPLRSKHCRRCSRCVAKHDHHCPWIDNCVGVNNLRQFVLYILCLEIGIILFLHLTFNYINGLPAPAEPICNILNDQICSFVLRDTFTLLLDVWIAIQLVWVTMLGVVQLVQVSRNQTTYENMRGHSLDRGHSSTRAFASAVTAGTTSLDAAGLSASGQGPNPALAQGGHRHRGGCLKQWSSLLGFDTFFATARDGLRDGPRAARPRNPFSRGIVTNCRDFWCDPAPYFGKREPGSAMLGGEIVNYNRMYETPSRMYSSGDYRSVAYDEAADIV
Assay: two-hybrid; S. cerevisiae AH109, Matchmaker system; AkrA on GAL4 DNA-BD (pGBKT7), partners on GAL4 AD (pGADT7); growth on high-stringency medium SD/-Ade/-His/-Leu/-Trp

MidA (full-length cDNA in pGADT7) (A. nidulans)
binding: no binding
